Reference: US20230127875 (published 2023)

Assay: general procedure: recombinant production

Substance	crude HPLC purity (lipidation step) [%]	crude HPLC purity (late stage modification step) [%]
DiFmoc-Insulin (tBuO-Pal-Glu-(Lys^29NH)-OtBu, DesB30)	66.64	–
Insulin (tBuO-Pal-Glu-(Lys^29NH)-OtBu, DesB30)	–	74.37
